# Results from one PubChem assay

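Luminescence from an EWS-FLI1 target-promoter (NR0B1) reporter, set against a CMV-promoter reporter, two days after silencing single genes in TC32 Ewing sarcoma cells.
Each siRNA was applied at 20 nM.
A z-score of the log NR0B1-over-CMV signal, less the median of siRNAs with the same seed; more negative means a stronger specific loss of the NR0B1 reporter.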

This is part of the screen; most of the strongest results are not listed here.
Sequences are the guide (antisense) strand, without overhang.

{"strand": "UCCGUUCUGAUAGCAGCUG", "target gene": "APBA2", "seed-corrected z-score": "-0.1568"}
{"strand": "UAGCGAUUAAGUUCUCGGG", "target gene": "ADAMTS16", "seed-corrected z-score": "-1.059"}
{"strand": "UAUCGAAAUCAACAAACCC", "target gene": "AFTPH", "seed-corrected z-score": "-0.4482"}
{"strand": "AUAAUCUAAAGUUCCAUUG", "target gene": "PCDHA11", "seed-corrected z-score": "-0.255"}
{"strand": "UCUUUACAGAAUCUAAUCC", "target gene": "GMCL1", "seed-corrected z-score": "0.9043"}
{"strand": "UCUUUUUCUCGCUCAGCCG", "target gene": "ICAM4", "seed-corrected z-score": "0.0948"}
{"strand": "AUAAGGACCACAUAACCGG", "target gene": "UMODL1", "seed-corrected z-score": "1.744"}
{"strand": "UUGGAUACAAGCUCUUGCC", "target gene": "CCNG1", "seed-corrected z-score": "-0.3325"}
{"strand": "UUCCAUUGAAUACACCUGG", "target gene": "FMO3", "seed-corrected z-score": "-0.7794"}
{"strand": "UUCCGGAGAAUCAGGGUGC", "target gene": "SNX32", "seed-corrected z-score": "-0.3413"}
{"strand": "AGCAGUGACACGUUGGUGC", "target gene": "TSKS", "seed-corrected z-score": "2.094"}
{"strand": "UUUGUAUCGUUUAAAAUCC", "target gene": "ASPN", "seed-corrected z-score": "-0.7366"}
{"strand": "UUUGCAAUCAAGAAGAUAG", "target gene": "DCDC2", "seed-corrected z-score": "0.6197"}
{"strand": "UAGAUAAUAGCACAGGCGG", "target gene": "CDNF", "seed-corrected z-score": "-0.4532"}
{"strand": "UUUUGAGUCCCUUACGUCC", "target gene": "HSD17B1", "seed-corrected z-score": "-0.3497"}
{"strand": "AUAGCGAUUACUCUCAGUG", "target gene": "NUP160", "seed-corrected z-score": "0.4971"}
{"strand": "UGAUGCUCUGGGAGAAGCC", "target gene": "CLCNKA", "seed-corrected z-score": "-0.1227"}
{"strand": "UCAGGUUCAACAGCCGCAG", "target gene": "FBXL6", "seed-corrected z-score": "-1.048"}
{"strand": "UUUUGUAGCAACUCUCGUC", "target gene": "EVC2", "seed-corrected z-score": "0.7968"}
{"strand": "UCUCUGUUCGGUUUACAGC", "target gene": "PRRT3", "seed-corrected z-score": "-0.3634"}
{"strand": "UGAAUGACCCGCUUGGUGU", "target gene": "MYH7B", "seed-corrected z-score": "0.5453"}
{"strand": "AAUUGUUAAUGGAUGGUUC", "target gene": "FAM217A", "seed-corrected z-score": "0.677"}
{"strand": "UAUAUUCGCUGGAAAUAGC", "target gene": "CNOT1", "seed-corrected z-score": "1.887"}
{"strand": "UUCUCUACCAGGCAGGUGU", "target gene": "FGFR4", "seed-corrected z-score": "-0.3983"}
{"strand": "UUCGUUUCCUCGUAGAAUU", "target gene": "ASMTL", "seed-corrected z-score": "0.4389"}
{"strand": "UACAGCAUCAUAGUGUCCG", "target gene": "OTUD1", "seed-corrected z-score": "1.365"}
{"strand": "AAUUCGAGAACAUCAGCCG", "target gene": "BRD3", "seed-corrected z-score": "-0.1071"}
{"strand": "UUUUGUCUAGCUGACCUCU", "target gene": "SPINK8", "seed-corrected z-score": "1.207"}
{"strand": "UCAUUAGCACUAAAUAGGC", "target gene": "ZRANB2", "seed-corrected z-score": "-0.1095"}
{"strand": "UACACUAUAGUCCAGACCC", "target gene": "CASP4", "seed-corrected z-score": "0.5808"}
{"strand": "UAUUGGUACAUUCUUUGAC", "target gene": "WFDC11", "seed-corrected z-score": "0.00742"}
{"strand": "AAAGGUUCUAGCAAGAAUU", "target gene": "ENDOV", "seed-corrected z-score": "-0.6983"}
{"strand": "UACGUCAGGAUUUCAUCCG", "target gene": "AHR", "seed-corrected z-score": "0.371"}
{"strand": "UAUCAUUUGUAAAAGGUCU", "target gene": "DEDD2", "seed-corrected z-score": "-0.05273"}
{"strand": "AAGAGAAUAGUAGUAGUGG", "target gene": "PEX11A", "seed-corrected z-score": "-0.2745"}
{"strand": "UGUUACUUUCGUCAAGUCC", "target gene": "TRPC6", "seed-corrected z-score": "-0.7876"}
{"strand": "UUACUAUCUGUUGACCUAC", "target gene": "USF3", "seed-corrected z-score": "-0.1038"}
{"strand": "UGAAGGCUCACCUAAAGCC", "target gene": "OGFOD2", "seed-corrected z-score": "-0.1637"}
{"strand": "AAAAGUCUCCCUACUACCC", "target gene": "INTU", "seed-corrected z-score": "0.5849"}
{"strand": "UUAGGGCUUUCGUAGAUGU", "target gene": "LINC01556", "seed-corrected z-score": "1.09"}
{"strand": "UACUGACCCAAUGUCUCCC", "target gene": "VGLL3", "seed-corrected z-score": "0.1317"}
{"strand": "UACAUGACAAACAUCCAUU", "target gene": "RSPO3", "seed-corrected z-score": "-1.834"}
{"strand": "UCUUAGCACAGUAAGAUUU", "target gene": "RPL32P36", "seed-corrected z-score": "-0.2104"}
{"strand": "AAUUAGUCCAUUAUCAAGG", "target gene": "SAMD3", "seed-corrected z-score": "1.101"}
{"strand": "UAAUCUAGGAUUUCUGUCC", "target gene": "RND1", "seed-corrected z-score": "0.3102"}
{"strand": "UUAGGUAUAACACUGACAU", "target gene": "NCBP2", "seed-corrected z-score": "0.3534"}
{"strand": "AACAUGUACACGGAGAUGC", "target gene": "P2RY1", "seed-corrected z-score": "-0.3318"}
{"strand": "UGUUGUGAUAAAAUCUUCG", "target gene": "PCNT", "seed-corrected z-score": "0.006369"}
{"strand": "UUUCGAUCUGUUGAAUUGC", "target gene": "ANTXRL", "seed-corrected z-score": "-0.07842"}
{"strand": "UAGGAUUCCAAACCAGUUC", "target gene": "CCDC115", "seed-corrected z-score": "1.791"}
{"strand": "UUAUGUGAAUACGAUAUUC", "target gene": "TMEM117", "seed-corrected z-score": "0.7293"}
{"strand": "UCUUGUUUCCGUAGAGUGC", "target gene": "TMEM119", "seed-corrected z-score": "0.6139"}

Some entries from above, unchanged:

UUUGCAAUCAAGAAGAUAG against DCDC2 gave seed-corrected z-score 0.6197.
UACUGACCCAAUGUCUCCC against VGLL3 gave seed-corrected z-score 0.1317.
AUAAGGACCACAUAACCGG against UMODL1 gave seed-corrected z-score 1.744.

Data taken from PubChem BioAssay AID1159506, deposited by NCATS (2015).